These are yes or no findings as the source states them, for the method shown. In cells and extracts the contact can be indirect. Some results given as binding are weak or reduced against the parent protein; the word gives no strength.
Molecular target: GST-tagged Salmonella Typhimurium TamB DUF490 domain (aa 923-1259) (Salmonella enterica serovar Typhimurium 14028s) (UniProt E1WAU5)
Test: pull-down; GST-tagged bait and N-terminally 6xHis-tagged prey co-expressed in one E. coli BL21 DE3 strain; lysate (0.1 x PBS, 50 mM EDTA, 1 mM DTT, about 1% Triton X-100; ATP and MgSO4 added, 37°C 10 min) bound to glutathione agarose 15 min at room temperature; washed 8 times with 50 mM Tris-Cl, 300 mM NaCl, 50 mM EDTA, pH 7.5 and twice with PBS; bound beads analysed by immunoblot with anti-GST and anti-His antibodies

Chains of the proteins cited; added tags and fusions are not shown. Residues count along the entry.
UniProt E1WAU5, residues 923-1259: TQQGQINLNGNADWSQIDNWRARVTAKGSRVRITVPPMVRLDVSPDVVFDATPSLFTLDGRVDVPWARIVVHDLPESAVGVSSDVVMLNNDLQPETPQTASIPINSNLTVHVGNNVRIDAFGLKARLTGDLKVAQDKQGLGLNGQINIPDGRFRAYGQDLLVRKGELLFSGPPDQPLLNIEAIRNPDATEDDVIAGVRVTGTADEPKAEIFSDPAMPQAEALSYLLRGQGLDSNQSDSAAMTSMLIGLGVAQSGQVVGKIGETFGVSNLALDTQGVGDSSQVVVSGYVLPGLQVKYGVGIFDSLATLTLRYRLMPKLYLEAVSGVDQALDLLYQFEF
UniProt E1WAU4, residues 21-265: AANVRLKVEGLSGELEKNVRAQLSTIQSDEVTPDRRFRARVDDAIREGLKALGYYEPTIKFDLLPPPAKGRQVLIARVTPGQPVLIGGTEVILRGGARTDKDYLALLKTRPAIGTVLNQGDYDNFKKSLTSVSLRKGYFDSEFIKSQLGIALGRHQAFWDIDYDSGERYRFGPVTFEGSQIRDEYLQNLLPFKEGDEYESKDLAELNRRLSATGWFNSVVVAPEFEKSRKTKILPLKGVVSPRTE

## 6xHis-tagged Salmonella Typhimurium TamA POTRA1-3 (aa 21-265) (from UniProt E1WAU4 21-265) (domain or fragment)
  binding: binds

Source: paper PMC11361582
